Reference: the supplement of paper PMC3334620
Whole data set: some 33,000 sequences, median “E-score (-0.5 to 0.5)” near -0.015, cut for the highest 2% near 0.3. Some of the results follow.

Each sequence was assayed against T1, Abf1 (UniProt P14164) (assay: PBM E-score (8-mer binding enrichment) (E-score (-0.5 to 0.5)); higher = stronger / more preferred TF binding). Conditions: protein concentration: 200 nM; construct: GST-full length.
T1 sequence: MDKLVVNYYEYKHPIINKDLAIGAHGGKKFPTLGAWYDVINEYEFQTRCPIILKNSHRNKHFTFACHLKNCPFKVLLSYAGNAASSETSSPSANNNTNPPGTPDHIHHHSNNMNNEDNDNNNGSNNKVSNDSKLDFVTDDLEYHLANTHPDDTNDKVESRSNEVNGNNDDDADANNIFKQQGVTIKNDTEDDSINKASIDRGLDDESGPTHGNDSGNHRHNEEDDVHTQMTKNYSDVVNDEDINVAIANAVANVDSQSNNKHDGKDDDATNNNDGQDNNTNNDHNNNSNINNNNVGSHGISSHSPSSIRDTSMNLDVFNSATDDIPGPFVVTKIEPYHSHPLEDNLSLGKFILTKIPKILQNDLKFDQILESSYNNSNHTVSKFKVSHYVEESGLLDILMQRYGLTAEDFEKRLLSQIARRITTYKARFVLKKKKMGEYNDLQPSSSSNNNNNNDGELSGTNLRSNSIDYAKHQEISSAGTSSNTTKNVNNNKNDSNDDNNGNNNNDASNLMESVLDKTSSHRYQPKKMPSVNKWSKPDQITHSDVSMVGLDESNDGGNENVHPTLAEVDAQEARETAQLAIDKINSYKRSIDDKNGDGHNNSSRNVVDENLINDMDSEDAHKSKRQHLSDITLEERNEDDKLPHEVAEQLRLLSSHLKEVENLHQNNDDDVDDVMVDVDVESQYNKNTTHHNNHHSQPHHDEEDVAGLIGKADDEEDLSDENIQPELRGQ
Outline: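 Using PURExpress in vitro transcription/translation, GST-tagged yeast transcription factors were made in full-length or DNA-binding-domain form. These were applied at about 100-200 nM to double-stranded universal all-10-mer Agilent arrays, and bound protein was detected with fluorescent anti-GST. Scans were normalised with masliner before the Universal PBM Analysis Suite assigned E-scores to ungapped eight-base words pooled with their reverse complements.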

| Sequence | PBM E-score |
| --- | --- |
| TATTAGCA | 0.068 |
| CCCCATCG | -0.0893 |
| CGGACATA | 0.0662 |
| ATACGGCC | 0.208 |
| CGACTCCA | -0.217 |
| GGTCGATA | 0.0222 |
| GAGATGAC | 0.141 |
| AACCAGAC | -0.0734 |
| CCATCTGC | 0.0477 |
| GCCAAATA | 0.0494 |
| GCCGATCC | -0.254 |
| GTGGTGCA | -0.209 |
| AGTGCAAC | -0.0826 |
| GAGCATCC | -0.0798 |
| CGCAATAC | 0.0749 |
| GTGCTCGA | -0.0517 |
| GTGTGGTA | -0.0368 |
| AAACGCAA | 0.0157 |
| ATATATGG | 0.0135 |
| ACCATATC | 0.0983 |
| CGAGGGCG | -0.171 |
| ACACAGAC | 0.0197 |

| Sequence | PBM E-score |
| --- | --- |
| AGGTTAAA | -0.0493 |
| ATTCTCAA | 0.217 |
| GCAGTTCC | -0.106 |
| AGTACATA | 0.0814 |
| CAGCTTGA | -0.141 |
| AGTCTAAG | 0.0137 |
| CTAGTTGA | -0.00191 |
| CCCTGTAA | -0.159 |
| ACTCAGTG | -0.087 |
| CCTCGTCA | 0.192 |
| AATTAGAG | 0.0856 |
| AAAAAGCT | 0.0693 |
| CTCACTAC | 0.203 |
| AGAATATA | 0.0825 |
| AACGGGCA | -0.0317 |
| AATGCATC | -0.0642 |
| AAATGCTA | 0.0313 |
| TATGCAAA | -0.07 |
| GGCCGACC | -0.165 |
| ACGATTCA | 0.226 |
| AGGGTAAT | 0.0413 |
| CGCTCCCC | -0.178 |

Looked up one by one from the entries so far, 5 records:

| Sequence | PBM E-score |
| --- | --- |
| AGGTTAAA | -0.0493 |
| ATTCTCAA | 0.217 |
| AATGCATC | -0.0642 |
| TATGCAAA | -0.07 |
| GCAGTTCC | -0.106 |

Following part

| Sequence | PBM E-score |
| --- | --- |
| TCCTCAAA | 0.00233 |
| ACGCAAGA | 0.155 |
| ATGGAAAG | -0.0545 |
| GCAACCGC | -0.0536 |
| GTCTCACA | 0.0381 |
| AGAGGGGA | -0.163 |
| AACCGGCG | -0.0688 |
| GATTGGAA | -0.006 |
| GATACTAA | 0.19 |
| AAGTCATA | 0.129 |
| CCGTTTCA | 0.0707 |
| ACAGGTTG | -0.228 |
| CAGTGTCA | -0.171 |
| CCACGCTA | 0.155 |
| AGCCTCCG | -0.13 |
| TACATAGA | 0.093 |
| CTCTACGA | 0.189 |
| CATTTCGG | -0.0384 |
| CTGCTGCA | -0.168 |
| CGCAGAAC | 0.0104 |
| CAGCGACA | 0.0383 |
| CGCGGAAA | -0.0356 |

| Sequence | PBM E-score |
| --- | --- |
| GAAACACA | 0.0862 |
| GACCCATC | -0.112 |
| AGTTTGAC | 0.0137 |
| ATCAAGAC | -0.0623 |
| ACGGATAA | 0.264 |
| CCACTTCC | 0.00801 |
| CGCATCTC | 0.0248 |
| AGCACTCG | -0.131 |
| AACTTTGA | 0.0972 |
| AGGAAAGA | -0.11 |
| ACCCGTCG | 0.0953 |
| AGTCCTGG | -0.0844 |
| CCATCCTC | -0.21 |
| TCCTCGCA | -0.132 |
| CAAAGATG | 0.0356 |
| GACGAATA | 0.232 |
| CGTACAGA | 0.308 |
| AAGGAATG | 0.0105 |
| ATCTTCAA | 0.0356 |
| AATATGAG | -0.0117 |
